# Experimental data published in PubChem BioAssay AID1671190 (National Center for Advancing Translational Sciences (NCATS), 2021).
# The chains behind the UniProt entries cited, without tags or fusion partners. Where a name states a change or a piece, a line headed by the entry shows the natural chain unless it says otherwise.
# UniProt P18054: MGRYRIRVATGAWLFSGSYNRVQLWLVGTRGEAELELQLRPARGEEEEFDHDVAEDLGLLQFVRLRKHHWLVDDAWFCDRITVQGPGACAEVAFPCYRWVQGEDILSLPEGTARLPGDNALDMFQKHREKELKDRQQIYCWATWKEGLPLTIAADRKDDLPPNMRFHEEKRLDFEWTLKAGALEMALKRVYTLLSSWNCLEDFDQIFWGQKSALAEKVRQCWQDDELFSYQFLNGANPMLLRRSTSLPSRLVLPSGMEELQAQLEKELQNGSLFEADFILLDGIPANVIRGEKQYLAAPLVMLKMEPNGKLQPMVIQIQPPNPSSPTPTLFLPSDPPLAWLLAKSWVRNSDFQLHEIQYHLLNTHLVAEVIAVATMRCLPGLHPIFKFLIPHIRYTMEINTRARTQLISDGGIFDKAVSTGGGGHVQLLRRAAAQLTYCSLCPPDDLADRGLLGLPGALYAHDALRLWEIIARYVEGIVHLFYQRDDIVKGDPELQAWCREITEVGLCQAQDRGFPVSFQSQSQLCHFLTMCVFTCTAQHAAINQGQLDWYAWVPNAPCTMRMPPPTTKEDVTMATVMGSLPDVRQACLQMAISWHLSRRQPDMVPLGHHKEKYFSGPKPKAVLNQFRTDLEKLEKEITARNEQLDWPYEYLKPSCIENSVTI
# Where “and” joins values, the source holds several entries; their conditions need not be identical. Equal values may be shown once. Among all 580,000 compounds or so, about 6,100 (1.1%) were called active. The shares of active, inactive and inconclusive entries below differ from those in the screen. Calls come from the whole dose curve; as a rule, active = well fitted inhibition curve with a large enough effect; inconclusive = small, poorly fitted or top-dose-only effect, or another doubt; inactive = no such curve, though single readings can be large or run the other way. A potency beside an inconclusive call is a rough fit, not a confirmed value.
# Target: Polyunsaturated fatty acid lipoxygenase ALOX12 (Homo sapiens) (UniProt P18054)
# Assay: Primary qHTS assay for inhibitors of human arachidonate 12S-lipoxygenase (ALOX12): Round 2
# Settings: purified 12hLO, xylenol orange hydroperoxide absorbance; activity change, negative = inhibition: at 108 µM (top of the series) unless noted
# Procedure, shortened: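 Purified human 12hLO (150 nM final) in 25 mM Hepes, 0.01% Triton X-100, pH 7.0 was preincubated 15 min at room temperature with compound. Then 40 uM arachidonic acid was added, 30 min. Hydroperoxide was read by Fe-XO absorbance ratio 573/405 nm.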
# % is set by controls: 0 for no effect and ±100 for the full control effect; potency is the fitted concentration of half-maximal effect.
SMILES,Potency,"activity change, negative = inhibition"
Cc1cnc(C(=O)OC(C)C(=O)c2c(C)[nH]c3ccccc23)cn1 (stereo unspecified),"inconclusive: 12.6 µM [inhibitor, full curve]",
O=C(Cc1ccc(F)cc1)N1CCC(c2n[nH]c(=O)n2-c2ccccc2)CC1,"inconclusive: 35.5 µM [inhibitor, partial curve, poor fit]",
N[C@@H]1CN(c2ncccn2)C[C@H]1CO,,inactive: -12.2%
COc1ccc(CCNC(=O)CCCc2nnc3n(C)c(=O)c4sccc4n23)cc1OC,"inconclusive: 56.2 µM [inhibitor, partial curve, poor fit]",
COc1ccccc1NC(=O)C(C)OC(=O)c1ccc2ccccc2n1 (stereo unspecified),"inconclusive: 44.7 µM [inhibitor, partial curve, poor fit]",
COc1ccc(S[C@]2(C(=O)N3CCCC3)CC(=O)N(c3ccc4ccccc4c3)[C@@H]2c2ccc(OC)cc2)cc1,"inconclusive: 100 µM [inhibitor, single point]",
Cc1cccc(C)c1OCC(=O)Nc1cccc2cccnc12,,inactive: -12.5%
N#CCCn1cc(-c2csc(NC3CC3)n2)c2ccccc21,active: 14.1 µM,
CC(C)c1[nH]nc2c1C(c1cccs1)C(C#N)=C(N)O2 (stereo unspecified),"inconclusive: 6.31 µM [inhibitor, full curve, poor fit]",
CC(=O)N1CCN(c2ccc(Cl)nn2)C(=O)C1,"inconclusive: 35.5 µM [inhibitor, full curve, poor fit]",
COc1cc(Nc2cccc(-c3ccccc3)n2)cc(OC)c1OC,"inconclusive: 89.1 µM [inhibitor, single point]",
NC(=O)CC(NC(=O)Cc1cccc2ccccc12)c1ccc(NCc2ccc(F)cc2)c([N+](=O)[O-])c1 (stereo unspecified),"inconclusive: 79.4 µM [inhibitor, single point]",
COc1ccc(NC(=O)CCc2c[nH]c3ccccc23)cc1,,inactive: -9.13%
Cc1ccc(CNC(=O)c2cc3cn(C(C)C)cc3s2)o1,"inconclusive: 31.6 µM [inhibitor, single point]",
COc1ccc(OCC(=O)Nc2cc(OC)ccc2N2CCCCC2)cc1,"inconclusive: 112 µM [inhibitor, single point]",
COc1ccc(NC(=O)NCCC(=O)N(C)Cc2ccc(Cl)c(Cl)c2)cc1,,inactive: 4.28%
Cc1ccc(-c2cc(C(=O)N3CCN(c4cccc(C(F)(F)F)c4)CC3)c3ccccc3n2)s1,"inconclusive: 2.82 µM [inhibitor, full curve, poor fit]",
CCOc1ccc(CNC(=O)C2CCCN(c3nn4cc(-c5ccc(F)cc5)nc4s3)C2)cc1 (stereo unspecified),"inconclusive: 89.1 µM [inhibitor, partial curve, poor fit]",
COc1ccc(N2CCN(CCCNC(=O)c3ccc4nc(Cc5ccccc5)oc4c3)CC2)cc1,"inconclusive: 100 µM [inhibitor, single point]",
Cc1cc(OCCN2CCOCC2)ccc1[N+](=O)[O-],"inconclusive: 2.82 µM [inhibitor, full curve, poor fit]",
CCOC(=O)CSC1=C(C#N)C(c2ccccc2C)C2=C(CCCC2=O)N1 (stereo unspecified),"inconclusive: 28.2 µM [inhibitor, partial curve, poor fit]",

SMILES,Potency,"activity change, negative = inhibition"
O=C(CSc1ccc(-c2nc3ccccc3[nH]2)cn1)N1CCN(C(=O)c2ccco2)CC1,"inconclusive: 7.08 µM [inhibitor, full curve, poor fit]",
O=S(=O)(c1ccc(S(=O)(=O)N2CCOCC2)cc1)N1CCCC1,"inconclusive: 126 µM [inhibitor, partial curve, poor fit]",
COC1CCOC2(CCN(C(=O)c3ccc4ccccc4n3)CC2)C1 (stereo unspecified),,inactive: 39.8%
O=C1NCc2ccccc2CC12CCN(Cc1ccnc3ccccc13)CC2,active: 28.2 µM,
COc1cc(NC(=O)CNc2ccc(Cl)c(S(=O)(=O)N3CCOCC3)c2)cc(OC)c1,"inconclusive: 89.1 µM [inhibitor, single point]",
CC(=O)NC(C(=O)NCc1ccc(C)cc1)C1CCCC1 (stereo unspecified),,inactive: -0.0805%
COc1ccc(-c2nnc3c(C(=O)Nc4cccc5ccccc45)cccn23)cc1,"inconclusive: 70.8 µM [inhibitor, partial curve, poor fit]",
Cc1cc2oc(=O)cc(CN(C)Cc3ccccc3)c2cc1C,"inconclusive: 100 µM [inhibitor, single point]",
COc1ccc(CCNc2nc(-c3ccc(O)cc3)cs2)cc1OC,"inconclusive: 39.8 µM [inhibitor, partial curve, poor fit] and inconclusive: 12.6 µM [inhibitor, partial curve, poor fit]",
CN1CC(=O)N(C2CCNCC2)Cc2c1ncnc2N1CCc2ccccc2C1,"inconclusive: 8.91 µM [inhibitor, partial curve]",
CC(C)CCC(=O)Nc1cc(S(=O)(=O)N2CCOCC2)ccc1N1CCCC1,,inactive: -1.02%
COc1cc(/C=C2\SC(=O)N(c3cccc(Cl)c3)C2=O)cc([N+](=O)[O-])c1O,"inconclusive: 44.7 µM [inhibitor, partial curve]",
O=C([C@@H]1C[C@H](F)CN1S(=O)(=O)Cc1ccc(Cl)cc1)N1CCc2ccccc2C1,,inactive: -14.9%
Cc1nc(Nc2ccccc2)sc1-c1ccccc1,"inconclusive: 56.2 µM [inhibitor, partial curve, poor fit]",
O=C1CCCCC1Nc1ccc2ccccc2c1 (stereo unspecified),"inconclusive: 56.2 µM [inhibitor, partial curve, poor fit]",
CCOc1ccccc1NC(=O)CSc1ccc2nc(-c3ccccc3)cn2n1,"inconclusive: 50.1 µM [inhibitor, partial curve, poor fit]",
COc1ccc(C2CC(=O)N3CN(Cc4ccco4)CSC3=C2C#N)cc1 (stereo unspecified),"inconclusive: 3.16 µM [inhibitor, full curve, poor fit]",
C=CCNc1nc(-c2sc(NC(=O)CC)nc2C)cs1,"inconclusive: 56.2 µM [inhibitor, partial curve, poor fit]",
O=C1c2ccccc2CCCC12N=NCC2c1cccc2ccccc12 (stereo unspecified),,inactive: 0.486%
CCOC(=O)C1=C(C)OC(N)=C(C#N)C1c1cc(C)sc1C (stereo unspecified),,inactive: 103%
